Measurements reported in PubChem BioAssay AID1508588 (Peter MacCallum Cancer Centre, 2020)

Screen: 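Genome-wide search for knock-downs that heighten vemurafenib action in melanoma cells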 (primary screen)
System: human WM266.4 melanoma cells (BRAF V600 mutant)
Reagent: siRNA pool against human genes, 40 nM
Timing: 96 h from transfection to read-out
Conditions: vemurafenib 300 nM (about IC25), added 48 h after transfection, for 48 h; comparison arm got DMSO vehicle only
Detection: 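Cell gain (DAPI nuclei at end minus before drug, mean of two replicates) and medium lactate by absorbance per cell, both as ratio to non-targeting siRNA, also grouped into fold-change classes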
Reading the numbers: cell gain with vemurafenib: higher = more cell gain than with non-targeting siRNA; lactate per cell with vemurafenib: higher = more lactate made per cell
Call rule: 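a knock-down counts as enhancing when its fold-change classes with vehicle and with vemurafenib, taken together, show a stronger drug effect on cell gain or lactate per cell; exact class pairs not stated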
Meaning of the calls: active = enhances vemurafenib effect; inactive = no enhancement seen
Shown is an unselected part of about 18,000 deposited reagents. 790 of all reagents (4.4%) were called active. 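Calls rest on a combination of fold-change classes in drug and vehicle arms, not all shown here.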

target | cell gain with vemurafenib | lactate per cell with vemurafenib | Call
CREB3 (cAMP responsive element binding protein 3) | 0.59 | 0.8 | inactive
SLC4A4 | 0.9 | 1.08 | inactive
ZNF226 (zinc finger protein 226) | 0.71 | 0.8 | inactive
MTRF1 (mitochondrial translation release factor 1) | 0.2 | 1.88 | inactive
FKTN (fukutin) | 0.58 | 0.7 | inactive
NUCLEOLIN (nucleolin multifunctional protein) | 0 | 0.72 | inactive
COPS7A (COP9 signalosome subunit 7A) | 0.82 | 0.72 | inactive
PXDNL (peroxidasin like) | 0.43 | 1.26 | inactive
ALYREF (Aly/REF export factor) | 0.62 | 0.78 | inactive
KCNV2 | 0.41 | 0.6 | active
TPRA1 (transmembrane protein adipocyte associated 1) | 0.63 | 0.16 | active
MIOX (myo-inositol oxygenase) | 0.46 | 0.9 | inactive
LILRB4 (leukocyte immunoglobulin like receptor B4) | 0.47 | 0.79 | inactive
COX4I1 (cytochrome c oxidase subunit 4I1) | 0.84 | 1.47 | inactive
TAF12 (TATA-box binding protein associated factor 12) | 0.77 | 0.4 | inactive
NOP53 (NOP53 ribosome biogenesis factor) | 0.36 | 1.18 | inactive
ABHD11 (abhydrolase domain containing 11) | 0.93 | 0.9 | inactive
SLC2A7 | 0.81 | 0.7 | inactive
NABP2 (nucleic acid binding protein 2) | 0.67 | 1.35 | inactive
PIK3C2G | 0.23 | 1.6 | inactive
TLCD4 (TLC domain containing 4) | 0.8 | 0.76 | inactive
RNASE9 (ribonuclease A family member 9 (inactive)) | 0.37 | 0.97 | inactive
KPNA5 (karyopherin subunit alpha 5) | 0.28 | 0.97 | inactive
HSPA4 (heat shock protein family A (Hsp70) member 4) | 0.52 | 0.57 | inactive
ATP5PO (ATP synthase peripheral stalk subunit OSCP) | 0.4 | 1.33 | inactive
SPOUT1 (SPOUT domain containing methyltransferase 1) | 0.33 | 1.03 | inactive
TSPAN7 (tetraspanin 7) | 0.73 | 1.1 | inactive
C2orf76 (chromosome 2 open reading frame 76) | 0.71 | 1.68 | inactive
FAM131C (family with sequence similarity 131 member C) | 0.4 | 1.21 | inactive
KIF2C (kinesin family member 2C) | 0.96 | 0.94 | inactive
PNPLA3 | 0.73 | 0.38 | inactive
RILP (Rab interacting lysosomal protein) | 0.29 | 1.86 | inactive
ICAM3 (intercellular adhesion molecule 3) | 0.47 | 0.73 | inactive
COPS4 (COP9 signalosome subunit 4) | 0.65 | 0.81 | inactive
UTY | 0.62 | -0.02 | inactive
OR4N2 (olfactory receptor family 4 subfamily N member 2) | 0.12 | 2.02 | inactive
THNSL1 (threonine synthase like 1) | 0.71 | 0.65 | inactive
FAS (Fas cell surface death receptor) | 0.33 | 0.73 | inactive
SLC26A2 | 1.19 | 0.8 | inactive
AQP12A (aquaporin 12A) | 0.18 | 0.62 | active
PNRC1 (proline rich nuclear receptor coactivator 1) | 0.22 | 0.75 | inactive
SLC43A1 | 1.23 | 0.28 | inactive
PM20D1 (peptidase M20 domain containing 1) | 0.36 | 0.71 | inactive
VEGFA (vascular endothelial growth factor A) | 1.06 | 0.78 | inactive
PCSK7 (proprotein convertase subtilisin/kexin type 7) | 0.55 | 1.8 | inactive
GXYLT2 (glucoside xylosyltransferase 2) | 0.71 | 0.74 | inactive
LMAN2 (lectin, mannose binding 2) | 0.72 | 1.44 | inactive
TRIB2 (tribbles pseudokinase 2) | 0.1 | 1.44 | inactive
TREML2 (triggering receptor expressed on myeloid cells like 2) | 0.34 | 0.84 | inactive
SNAP47 (synaptosome associated protein 47) | 0.52 | 0.43 | inactive
PTPDC1 (protein tyrosine phosphatase domain containing 1) | 0.58 | 1.02 | inactive
CYBA (cytochrome b-245 alpha chain) | 0.5 | 0.54 | inactive
ALPG (alkaline phosphatase, germ cell) | 0.43 | 1.24 | inactive
NALCN (sodium leak channel, non-selective) | 1.04 | 0.44 | inactive
ZNF169 (zinc finger protein 169) | 0.89 | 0.76 | inactive
PTPN13 (protein tyrosine phosphatase non-receptor type 13) | 0.84 | 0.96 | inactive
TLE3 (TLE family member 3, transcriptional corepressor) | 0.45 | 1.53 | inactive
RPN1 (ribophorin I) | 0.22 | 1.82 | inactive
MAPKAPK2 (MAPK activated protein kinase 2) | 0.81 | 0.61 | inactive
TLR7 (toll like receptor 7) | 0.47 | 2.17 | inactive
KRTAP13-2 (keratin associated protein 13-2) | 0.62 | 1.57 | inactive
SLC35E4 | 0.92 | 2.05 | inactive
NEUROD1 (neuronal differentiation 1) | 0.82 | 1.5 | inactive
THOC2 (THO complex subunit 2) | 0.64 | 0.58 | inactive
KHDC3L | 0.44 | 1.38 | inactive
ARHGEF18 (Rho/Rac guanine nucleotide exchange factor 18) | 0.71 | 0.5 | inactive
PSME3 (proteasome activator subunit 3) | 0.31 | 1.82 | inactive
ABCG5 (ATP binding cassette subfamily G member 5) | 0.36 | 1.52 | inactive
SH2B2 (SH2B adaptor protein 2) | 0.38 | 0.77 | inactive
SLC16A2 | 0.6 | 0.76 | inactive
HOXA5 (homeobox A5) | 0.26 | 0.36 | inactive
HMGA1 (high mobility group AT-hook 1) | 0.55 | 0.44 | inactive
RAB6D (RAB6D, member RAS oncogene family) | 0.96 | 0.59 | inactive
SELENOM (selenoprotein M) | 0.96 | 0.89 | inactive
BEND6 (BEN domain containing 6) | 0.28 | 1.29 | inactive
CHD5 (chromodomain helicase DNA binding protein 5) | 1.03 | 0.66 | inactive
STK38L (serine/threonine kinase 38 like) | 0.52 | 1.74 | inactive
NOP16 (NOP16 nucleolar protein) | 0.53 | 0.44 | inactive
WDR5 (WD repeat domain 5) | 0.51 | 1.08 | inactive
ZNF346 (zinc finger protein 346) | 0.46 | 0.78 | inactive
C1R (complement C1r) | 0.5 | 0.64 | inactive
ELF5 (E74 like ETS transcription factor 5) | 0.91 | 0.83 | inactive
ZNF511 (zinc finger protein 511) | 0.52 | 0.49 | active
FGFR1 (fibroblast growth factor receptor 1) | 0.38 | 0.3 | inactive

Limited to “cell gain with vemurafenib”, for 4 of the entries above:
SPOUT1 (SPOUT domain containing methyltransferase 1): 0.33
TSPAN7 (tetraspanin 7): 0.73
C2orf76 (chromosome 2 open reading frame 76): 0.71
FAM131C (family with sequence similarity 131 member C): 0.4
